Measurements: publication doi:10.1101/2022.01.06.474281

Target: T1, RETINOBLASTOMA RELATED (RBR), Arabidopsis, yeast two-hybrid fusion in pDEST32 (Arabidopsis thaliana) (UniProt Q9LKZ3)
T1 sequence: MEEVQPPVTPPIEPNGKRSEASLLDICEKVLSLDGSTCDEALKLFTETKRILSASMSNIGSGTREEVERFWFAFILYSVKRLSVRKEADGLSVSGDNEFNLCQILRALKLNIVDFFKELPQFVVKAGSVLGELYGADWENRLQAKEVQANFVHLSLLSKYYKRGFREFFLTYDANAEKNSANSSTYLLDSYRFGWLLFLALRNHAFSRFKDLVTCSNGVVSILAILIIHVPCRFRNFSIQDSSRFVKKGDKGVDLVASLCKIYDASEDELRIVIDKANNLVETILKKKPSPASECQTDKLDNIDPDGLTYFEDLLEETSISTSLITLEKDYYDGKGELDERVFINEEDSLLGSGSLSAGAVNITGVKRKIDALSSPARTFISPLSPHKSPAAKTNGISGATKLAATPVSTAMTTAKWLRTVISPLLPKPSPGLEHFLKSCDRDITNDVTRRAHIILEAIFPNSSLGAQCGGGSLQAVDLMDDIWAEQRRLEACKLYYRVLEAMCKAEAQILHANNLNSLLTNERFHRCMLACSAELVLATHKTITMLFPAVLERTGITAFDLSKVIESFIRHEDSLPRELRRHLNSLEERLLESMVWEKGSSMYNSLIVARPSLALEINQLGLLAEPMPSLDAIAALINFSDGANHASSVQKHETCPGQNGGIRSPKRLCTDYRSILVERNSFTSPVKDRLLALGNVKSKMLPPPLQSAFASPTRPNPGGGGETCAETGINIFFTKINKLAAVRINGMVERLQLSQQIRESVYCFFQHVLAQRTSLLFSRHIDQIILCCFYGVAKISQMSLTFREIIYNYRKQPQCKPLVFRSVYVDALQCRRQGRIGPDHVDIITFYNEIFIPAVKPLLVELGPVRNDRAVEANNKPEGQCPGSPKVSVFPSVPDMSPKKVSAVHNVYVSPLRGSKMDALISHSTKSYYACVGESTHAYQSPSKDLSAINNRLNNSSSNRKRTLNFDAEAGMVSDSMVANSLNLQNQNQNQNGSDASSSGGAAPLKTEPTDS
Assay: two-hybrid

binding: binds
Substance: M. polymorpha DCL3 ortholog, yeast two-hybrid fusion

These are yes or no findings as the source states them, for the method shown. Binding can be weak; no strength is given. Where a sequence is shown, tags or fusion partners need not be part of it.
